Assay results as given in patent US20260103679A1, “COMPOSITIONS COMPRISING REGULATORY T CELLS AND METHODS OF USING THE SAME” (Cellenkos, Inc., priority 2021, published 2026).
At least one structure is not confirmed: it was looked up by name or label, or the drawing left a doubt.

What was measured:
[1] = system: Tcon cells; test: Suppression assay of thawed CB Treg cells with ruxolitinib; type: cell-based, human; conditions: 0.05 μM ruxolitinib, 96 hours
[2] = system: SLE-PBMC; test: Interferon-gamma release by SLE-PBMC; type: cell-based, human
[3] = system: xenogeneic mouse graft versus host disease (GVHD) model; conditions: in vivo
Protocol: FIG. 33 depicts a schematic for treatment of a xenogeneic mouse graft versus host disease (GVHD) model with a ruxolitinib and activated Treg cells regimen. PBMC=peripheral blood mononuclear cells.
A xenogeneic mouse graft versus host disease (GVHD) model was treated with a ruxolitinib and activated CB Treg cells regimen, as depicted in FIG. 33. NSG mice underwent sublethal irradiation on day −1 followed by injection of 1×10^7 donor peripheral blood (PB) mononuclear cells (MNCs) on day 0. Oral ruxolitinib at 1 mg daily was fed continuously to the mice in the presence or absence of 1×10^7 CB Treg cells, tagged with CellTrace™ Violet dye (ThermoFisher), administered on days +4, +7, +11, +18. Mice were followed every other day for weight, GVHD score and survival. Serial blood draws were performed to analyze for cell compartment and cytokine assays.

[4] = system: PMF; conditions: cited from earlier work

With `N#CC[C@H](C1CCCC1)n1cc(-c2ncnc3[nH]ccc23)cn1` [ruxolitinib] the “suppressive function of thawed cryopreserved CB Treg cells” value [1] was “restored the suppressive function”, the “level of IFN-γ released from SLE-PBMCs” value [2] was “decreased” and the “level of FGF-12” value [3] was “reduced equally”. For the same molecule, the “level of Macrophage-Derived Chemokine (MDC)” value [3] was “reduced equally”, the “number of human cells (human CD45)” value [3] was “decreased” and the “circulating levels of pro-inflammatory cytokines including IL-6 and TNF-α” value [4] was “dramatic decrease”.
